These are yes or no findings as the source states them, for the method shown. Some binding calls cover weakened binding; strength is not graded here.
target: Tsg101 (aa 240-391) (human) (UniProt Q99816); test: yeast two-hybrid

Protein sequences, listed by entry. Tags and fused reporters are not part of them. Residues count along the entry.
UniProt Q99816, residues 240-390: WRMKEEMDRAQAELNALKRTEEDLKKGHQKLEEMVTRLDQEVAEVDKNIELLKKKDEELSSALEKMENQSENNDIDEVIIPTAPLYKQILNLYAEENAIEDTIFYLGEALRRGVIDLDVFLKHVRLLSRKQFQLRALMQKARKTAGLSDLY
UniProt P13647, residues 282-448: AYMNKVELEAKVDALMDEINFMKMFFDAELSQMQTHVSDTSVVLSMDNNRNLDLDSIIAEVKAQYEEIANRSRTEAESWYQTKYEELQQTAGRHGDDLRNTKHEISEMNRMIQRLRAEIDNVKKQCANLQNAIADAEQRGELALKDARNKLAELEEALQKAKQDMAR
keratin 8 (aa 147-406) (P05787, residues 147-406): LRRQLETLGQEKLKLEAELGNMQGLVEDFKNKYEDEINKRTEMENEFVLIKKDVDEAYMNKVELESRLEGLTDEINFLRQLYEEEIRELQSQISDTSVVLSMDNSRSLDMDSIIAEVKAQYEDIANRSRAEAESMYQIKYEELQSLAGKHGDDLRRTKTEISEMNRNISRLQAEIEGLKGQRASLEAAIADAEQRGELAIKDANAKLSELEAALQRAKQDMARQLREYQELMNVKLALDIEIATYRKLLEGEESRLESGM
keratin 8 (aa 293-394) (P05787, residues 293-394): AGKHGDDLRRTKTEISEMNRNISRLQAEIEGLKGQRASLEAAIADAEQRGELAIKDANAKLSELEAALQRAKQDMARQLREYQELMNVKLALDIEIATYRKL

binding	Substance
binds	keratin 5 (aa 282-448) (from UniProt P13647 282-448)
binds	keratin 8 (aa 147-406) (from UniProt P05787 147-406)
binds	keratin 8 (aa 293-394) (from UniProt P05787 293-394)

From patent US7202329
